The list is a part of this screen's results and no random one: it is rich in T/C values a quarter to a half above the control, in often repeated tests (any T/C) and in doses without a T/C. Further doses and runs are listed elsewhere. T/C is the treated group as % of the vehicle group. Some doses have a count of surviving animals in place of a T/C: the source files T/C as zero there, which appears to mark a toxic dose or a test without result, not a measured value. Some doses without a T/C left all or most animals alive at the check, yet need not have been tolerated: survival well below the control is almost never listed, so the zero probably covers shortened survival too. Counts of survivors are from the toxicity check (mostly the fifth day) where no day follows; animals may have died later. Schedule codes are those of the source, taken here to give the interval after Q, in days (D) or hours (H), and the number of doses after X. Some structures stand for samples that the source files as different forms (salt, stereo form or complex); doses refer to the form tested. Where survival is the endpoint, this PubChem deposit counts one and a half times the control or more as active, and values a quarter to a half above the control carry no call in these data; other NCI protocols may use other cut-offs. Some doses were run more than once; their values stand side by side, smallest first. Some T/C values are followed by the survivors on the day toxicity was checked, most often the fifth; where none is given, no animal had died by that day.
Test system: L1210 leukemia ip in BDF1 mice, survival T/C
Assay: NCI In Vivo Anticancer Drug Screen. Data for tumor model L1210 Leukemia (intraperitoneal) in B6D2F1 (BDF1) mice
Settings: T/C endpoint: mean survival time, higher T/C = longer survival
[1] = dose: 200.0 mg/kg/injection, schedule: Q01DX009 (ip), vehicle: saline
[2] = dose: 400.0 mg/kg/injection, schedule: Q01DX009 (ip), vehicle: saline
[3] = dose: 300.0 mg/kg/injection, schedule: Q01DX001 (ip), vehicle: saline
[4] = dose: 300.0 mg/kg/injection, schedule: Q01DX001 (ip), vehicle: carboxymethylcellulose (CMC)
[5] = dose: 200.0 mg/kg/injection, schedule: Q01DX001 (ip), vehicle: saline
[6] = dose: 400.0 mg/kg/injection, schedule: Q01DX001 (ip), vehicle: saline
[7] = dose: 100.0 mg/kg/injection, schedule: Q01DX009 (ip), vehicle: saline with Tween-80
[8] = dose: 50.0 mg/kg/injection, schedule: Q01DX009 (ip), vehicle: saline
[9] = dose: 100.0 mg/kg/injection, schedule: Q04DX003 (ip), vehicle: saline

COC(=O)C(N)CCCCNC(c1ccccc1)(c1ccccc1)c1ccccc1 (configuration not stated) was tested, and the survivor count [1] was 0 of 6 and the survivor count [2] was 0 of 6.
In the case of CN1C2CCCCC1C1CCCCC2[N+]1(C)C, the survivor count (dose: 150.0 mg/kg/injection, schedule: Q01DX001 (ip), vehicle: saline) is reported as 0 of 6 and the survivor count [3] is reported as 0 of 6.
CN(CCC(=O)c1ccccc1)CCC(=O)c1ccccc1 was tested, and the survivor count (dose: 400.0 mg/kg/injection, schedule: Q01DX001 (ip), vehicle: saline with Tween-80) was 0 of 6.
For CN(C)Cc1ccc(C(C)(C)C)cc1, the survivor count (dose: 200.0 mg/kg/injection, schedule: Q01DX009 (ip), vehicle: water) was 0 of 6 and the survivor count (dose: 400.0 mg/kg/injection, schedule: Q01DX009 (ip), vehicle: water) was 0 of 6.
Cc1ccc(NC2=CC(=O)c3ccccc3C2=O)cc1 was tested, and the survivor count [4] was 6 of 6.
CCC(CC)COC(=O)CI was tested, and the survivor count (dose: 100.0 mg/kg/injection, schedule: Q01DX001 (ip), vehicle: saline) was 2 of 4, the survivor count [5] was 0 of 4 and the survivor count [6] was 0 of 4.
Cc1nc(C(=O)NN)co1 was tested, and the survivor count [5] was 0 of 4 and the survivor count [6] was 0 of 4.
With N#CSCc1ccc(Cl)cc1 the survivor count (dose: 50.0 mg/kg/injection, schedule: Q01DX009 (ip), vehicle: saline with Tween-80) was 6 of 6 and the survivor count [7] was 0 of 6.
In the case of Cc1ccc2ccccc2[n+]1[O-], the survivor count [4] is reported as 3 of 6.
For CCCCCCCCCCCCCCCCCCCCCCOC(=O)CCC(=O)OCCCCCCCCCCCCCCCCCCCCCC, the survivor count (dose: 400.0 mg/kg/injection, schedule: Q01DX009 (ip), vehicle: gum acacia) was 6 of 6.
In the case of NC(=Nc1ccccc1)SCc1ccc([N+](=O)[O-])cc1, the survivor count (dose: 200.0 mg/kg/injection, schedule: Q01DX009 (ip), vehicle: Klucel (hydroxypropylcellulose) (HPC)) is reported as 0 of 3 and the survivor count (dose: 400.0 mg/kg/injection, schedule: Q01DX005 (ip), vehicle: Klucel (hydroxypropylcellulose) (HPC)) is reported as 0 of 3.
O=NN(CCCl)C(=O)Nc1cccc(C(=O)O)c1 was tested, and the T/C (dose: 1.25 mg/kg/injection, schedule: Q01DX001 (ip), vehicle: carboxymethylcellulose (CMC)) was 126 % of control, the T/C (dose: 2.5 mg/kg/injection, schedule: Q01DX001 (ip), vehicle: carboxymethylcellulose (CMC)) was 126 % of control and the T/C (dose: 18.0 mg/kg/injection, schedule: Q01DX001 (ip), vehicle: saline) was 127 % of control. The T/C (dose: 26.0 mg/kg/injection, schedule: Q01DX001 (ip), vehicle: saline) was 148 % of control, the survivor count (dose: 40.0 mg/kg/injection, schedule: Q01DX001 (ip), vehicle: saline) was 3 of 6 and the survivor count (dose: 60.0 mg/kg/injection, schedule: Q01DX001 (ip), vehicle: saline) was 0 of 6. The survivor count (dose: 90.0 mg/kg/injection, schedule: Q01DX001 (ip), vehicle: saline) was 0 of 6 and the survivor count (dose: 120.0 mg/kg/injection, schedule: Q01DX001 (ip), vehicle: saline) was 0 of 6.
For C[n+]1ccc(Nc2ccc(NC(=O)c3ccc(Nc4cc[n+](C)c5ccc([N+](=O)[O-])cc45)cc3[N+](=O)[O-])cc2)cc1, the T/C (dose: 25.0 mg/kg/injection, schedule: Q01DX009 (ip), vehicle: saline) was 141 % of control [5 of 6 alive], the T/C [8] was 130 % of control and the T/C (dose: 100.0 mg/kg/injection, schedule: Q01DX001 (ip), vehicle: suspension in saline) was 126 % of control. The T/C (dose: 100.0 mg/kg/injection, schedule: Q01DX009 (ip), vehicle: saline) was 137 and 143 % of control [5 of 6 alive], the T/C (dose: 100.0 mg/kg/injection, schedule: Q04DX002 (ip), vehicle: saline) was 97, 98, 109, 117 % of control and the T/C [9] was 127 % of control. The T/C (dose: 100.0 mg/kg/injection, schedule: Q04DX003 (ip), vehicle: suspension in saline) was 138 % of control, the T/C (dose: 200.0 mg/kg/injection, schedule: Q01DX001 (ip), vehicle: suspension in saline) was 126 and 127 % of control and the T/C [1] was 140 and 145 % of control. For the same compound, the T/C (dose: 200.0 mg/kg/injection, schedule: Q04DX002 (ip), vehicle: saline) was 109, 113, 117, 122 % of control, the T/C (dose: 200.0 mg/kg/injection, schedule: Q04DX003 (ip), vehicle: saline) was 139 % of control and the T/C (dose: 260.0 mg/kg/injection, schedule: Q04DX003 (ip), vehicle: saline) was 139 % of control. For the same compound, the survivor count (dose: 300.0 mg/kg/injection, schedule: Q01DX009 (ip), vehicle: saline) was 2 of 6, the T/C (dose: 300.0 mg/kg/injection, schedule: Q04DX003 (ip), vehicle: saline) was 141 % of control and the survivor count [2] was 3 of 6. The T/C (dose: 400.0 mg/kg/injection, schedule: Q04DX002 (ip), vehicle: saline) was 106, 117, 125, 126 % of control, the T/C (dose: 400.0 mg/kg/injection, schedule: Q04DX003 (ip), vehicle: saline) was 141 and 143 % of control and the survivor count (dose: 400.0 mg/kg/injection, schedule: Q04DX003 (ip), vehicle: suspension in saline) was 3 of 3.
For O=C(OCC1OC(n2c(=O)[nH]cc(F)c2=O)C(OC(=O)c2ccccc2)C1OC(=O)c1ccccc1)c1ccccc1 (configuration not stated), the T/C (dose: 12.5 mg/kg/injection, schedule: Q01DX005 (ip), vehicle: saline) was 130 % of control, the T/C (dose: 20.0 mg/kg/injection, schedule: Q01DX005 (ip), vehicle: Klucel (hydroxypropylcellulose) (HPC)) was 131 % of control and the T/C (dose: 25.0 mg/kg/injection, schedule: Q01DX005 (ip), vehicle: saline) was 128 % of control. For the same compound, the T/C (dose: 80.0 mg/kg/injection, schedule: Q01DX005 (ip), vehicle: Klucel (hydroxypropylcellulose) (HPC)) was 143 % of control and the T/C (dose: 100.0 mg/kg/injection, schedule: Q01DX005 (ip), vehicle: saline) was 125 % of control.
With OCCN1CCN(CC/C=C2/c3ccccc3Sc3ccc(Cl)cc32)CC1 the T/C (dose: 13.5 mg/kg/injection, schedule: Q01DX015 (ip), vehicle: saline) was 127 % of control, the T/C (dose: 22.5 mg/kg/injection, schedule: Q01DX015 (ip), vehicle: saline) was 133 % of control and the T/C (dose: 25.0 mg/kg/injection, schedule: Q01DX001 (ip), vehicle: saline) was 127 % of control. The T/C (dose: 37.5 mg/kg/injection, schedule: Q01DX001 (ip), vehicle: saline) was 127 % of control, the survivor count (dose: 37.5 mg/kg/injection, schedule: Q01DX015 (ip), vehicle: saline) was 3 of 6 and the T/C (dose: 50.0 mg/kg/injection, schedule: Q01DX001 (ip), vehicle: saline) was 125 and 130 % of control. The survivor count [8] was 3 of 6, the survivor count [9] was 4 of 6 and the survivor count [5] was 0 of 6. The survivor count [6] was 0 of 6.
For [Cl][Pt+2][Cl].[NH-]c1ccc(Cl)cc1[NH-], the T/C (dose: 25.0 mg/kg/injection, schedule: Q04DX003 (ip), vehicle: saline) was 126 % of control and the T/C (dose: 50.0 mg/kg/injection, schedule: Q04DX003 (ip), vehicle: saline) was 134 and 138 % of control.
For O/N=C/c1ccc2ccccc2n1, the survivor count (dose: 150.0 mg/kg/injection, schedule: Q04DX003 (ip), vehicle: Klucel (hydroxypropylcellulose) (HPC)) was 0 of 6 and the survivor count (dose: 300.0 mg/kg/injection, schedule: Q04DX003 (ip), vehicle: Klucel (hydroxypropylcellulose) (HPC)) was 0 of 6.
For OCCN1CCN(CCCN2c3ccccc3Sc3ccc(Cl)cc32)CC1, the T/C (dose: 100.0 mg/kg/injection, schedule: Q04DX002 (ip), vehicle: Klucel (hydroxypropylcellulose) (HPC)) was 125 % of control and the survivor count (dose: 400.0 mg/kg/injection, schedule: Q04DX002 (ip), vehicle: Klucel (hydroxypropylcellulose) (HPC)) was 0 of 3.
For C[n+]1cccc(SC2CCC3CC4CC3C2C4)c1 (configuration not stated), the survivor count [7] was 0 of 3 and the survivor count (dose: 200.0 mg/kg/injection, schedule: Q01DX009 (ip), vehicle: saline with Tween-80) was 0 of 3.
C=CCCCCCCC=C was tested, and the survivor count (dose: 100.0 mg/kg/injection, schedule: Q01DX001 (ip), vehicle: carboxymethylcellulose (CMC)) was 4 of 4.
For O=C(O)CCCc1nccc2ccccc12, the survivor count [3] was 2 of 6.
With O=c1[nH]cnc2ccc([N+](=O)[O-])cc12 the survivor count (dose: 200.0 mg/kg/injection, schedule: Q04DX003 (ip), vehicle: Klucel (hydroxypropylcellulose) (HPC)) was 3 of 6.
O=C(NC(=S)Nc1cccc(Cl)c1)c1ccccc1 was tested, and the survivor count (dose: 400.0 mg/kg/injection, schedule: Q01DX009 (ip), vehicle: Klucel (hydroxypropylcellulose) (HPC)) was 0 of 6.
